{
  "sequences": {"note": "Chains of the proteins cited; added tags and fusions are not shown.", "UniProt Q0JBA9, entry or part of it": "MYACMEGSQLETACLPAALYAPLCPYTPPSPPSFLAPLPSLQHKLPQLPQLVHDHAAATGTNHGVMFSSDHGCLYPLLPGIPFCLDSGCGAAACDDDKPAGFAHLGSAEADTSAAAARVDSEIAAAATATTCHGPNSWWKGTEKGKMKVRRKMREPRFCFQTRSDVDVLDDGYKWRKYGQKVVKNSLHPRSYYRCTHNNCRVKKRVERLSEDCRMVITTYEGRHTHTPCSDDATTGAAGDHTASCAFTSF"},
  "source": "paper PMC7819943",
  "about": "“Rice protein-binding microarrays: a tool to detect cis-acting elements near promoter regions in rice”",
  "note": "The other results are listed elsewhere or left out.",
  "data": [
    {"molecular_target": "OsWRKY34 (Oryza sativa, UniProt Q0JBA9 1-250)", "assay": "protein-binding microarray (RPBM); PBS, 2% BSA, 51.3 ng/ul salmon testes DNA, 50 uM zinc acetate, 200 nM TF, 25 C, 1 h; high values mean tight binding", "settings": "protein: recombinant; tags: N-terminal polyhistidine and DsRed monomer fusion (pET32a); label: CyDye5-dUTP incorporated in the synthesized complementary strand; 3' TTTTT single-stranded linker to array surface; dsDNA, one strand shown", "how_it_was_run": "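Binding signal here means per-feature fluorescence intensity in arbitrary units. The values were read on an Axon 4000B scanner after a custom Agilent array, double-stranded by primer extension with Cy5-dUTP, was incubated with 200 nM protein at 25 °C for 1 h in PBS with 2% BSA, salmon testes DNA and 50 µM zinc acetate, then washed. The proteins were transcription factors with an N-terminal polyhistidine tag and DsRed, expressed in E. coli BL21-CodonPlus and purified on Ni–NTA.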", "values": [
      {"sequence": "AGTAGCAGAGGTCGTTTTGTTTTGATTTTTTTTAACTTTACGGAGTCACCTAGTGCAG", "binding signal": "8590 fluorescence intensity (a.u.)"},
      {"sequence": "AGGTGGGGTCTGGTGAATTCTACCTGTCTATTCCAATGACCGGAGTCACCTAGTGCAG", "binding signal": "8040 fluorescence intensity (a.u.)"},
      {"sequence": "ACTGATTGTCCAGCGCTATTCTGTTATGTGTGATTTTAACCGGAGTCACCTAGTGCAG", "binding signal": "10300 fluorescence intensity (a.u.)"},
      {"sequence": "TGTGAAGTCGTTGCTTATTAGTTGTCCCGAATTATTAACCCGGAGTCACCTAGTGCAG", "binding signal": "8040 fluorescence intensity (a.u.)"},
      {"sequence": "ATTTTATTTATTTTTAAGCTCTTGTTCATATTGTTCAATTCGGAGTCACCTAGTGCAG", "binding signal": "8060 fluorescence intensity (a.u.)"},
      {"sequence": "GTCTCATCCCTGTAATCCCTGTTCTAGTGTTCTGTTGAAACGGAGTCACCTAGTGCAG", "binding signal": "10400 fluorescence intensity (a.u.)"},
      {"sequence": "CTCTCGCGCGAGATGTCCGTGACTCTCTTTTCGTTTACACCGGAGTCACCTAGTGCAG", "binding signal": "8420 fluorescence intensity (a.u.)"},
      {"sequence": "CCGGGTGTCATATTTGCAGTCCTTCATCTGAACCGCTAAGCGGAGTCACCTAGTGCAG", "binding signal": "10800 fluorescence intensity (a.u.)"},
      {"sequence": "TCATATCCGACGTTTGACCGTTCATCTTATTTGAAAATTTCGGAGTCACCTAGTGCAG", "binding signal": "10500 fluorescence intensity (a.u.)"},
      {"sequence": "ACTTGTAGAGGTGTGTCATCTAGGTCCCTAAACTCTCAAACGGAGTCACCTAGTGCAG", "binding signal": "10100 fluorescence intensity (a.u.)"},
      {"sequence": "TGGGCTGAAGTTGTTTGTAGCGCATCTGTCATCTGTCTCGCGGAGTCACCTAGTGCAG", "binding signal": "10500 fluorescence intensity (a.u.)"},
      {"sequence": "TACACTCCCTAGCGCAACTTGCAACTTTGCCAGCCATGGCCGGAGTCACCTAGTGCAG", "binding signal": "10100 fluorescence intensity (a.u.)"},
      {"sequence": "CCTTCGCCTTCCTCGGCACCCTGCAGTTAGCCTTGTCCGCCGGAGTCACCTAGTGCAG", "binding signal": "8830 fluorescence intensity (a.u.)"},
      {"sequence": "CATCCATCGTAATATGGGCCGGGCTTCTTTTGTGAATTTCCGGAGTCACCTAGTGCAG", "binding signal": "11800 fluorescence intensity (a.u.)"},
      {"sequence": "AATCACTTGAAGTTTGACATTCCACCTCATAAGTTATTTTCGGAGTCACCTAGTGCAG", "binding signal": "10500 fluorescence intensity (a.u.)"},
      {"sequence": "ATGACTTTAATATGTTAGCTTTTCATGCATGTGTCAATTTCGGAGTCACCTAGTGCAG", "binding signal": "8700 fluorescence intensity (a.u.)"},
      {"sequence": "GGAGGGGAGGGGTGGCCCGGGACCGTTGCCCGTCTCGCAGCGGAGTCACCTAGTGCAG", "binding signal": "11500 fluorescence intensity (a.u.)"},
      {"sequence": "TGTTGTTTGCTGTTGTTGCCTTGCTGCGCAAAGATTTGGTCGGAGTCACCTAGTGCAG", "binding signal": "8050 fluorescence intensity (a.u.)"},
      {"sequence": "GGACCGTTGGATGGGTGCACGAAAAATGTTTGTACGGCTGCGGAGTCACCTAGTGCAG", "binding signal": "9020 fluorescence intensity (a.u.)"},
      {"sequence": "TATACTCCCTCCATTTCAAAATGTTTGACACCGTTGACTTCGGAGTCACCTAGTGCAG", "binding signal": "9590 fluorescence intensity (a.u.)"},
      {"sequence": "CAACCGCTCGAGCAAAGCCTCCAAAACCCTAGCGCTCTCTCGGAGTCACCTAGTGCAG", "binding signal": "8300 fluorescence intensity (a.u.)"},
      {"sequence": "ATGTTGGTCCGTCAGTTACACTGGGCCTCTCTGCTGTGTTCGGAGTCACCTAGTGCAG", "binding signal": "8920 fluorescence intensity (a.u.)"},
      {"sequence": "AGGCCATCTTTGTGCACGAAACTCTGCTGATCGGGCCAAACGGAGTCACCTAGTGCAG", "binding signal": "9140 fluorescence intensity (a.u.)"},
      {"sequence": "ATCCTCATCCTCCGCCACCGCCGCCTGCGCCGATCCCCATCGGAGTCACCTAGTGCAG", "binding signal": "9980 fluorescence intensity (a.u.)"},
      {"sequence": "CCTATTCCTTGTCACCACTGCCCAGCCCATACACGGCCCACGGAGTCACCTAGTGCAG", "binding signal": "11300 fluorescence intensity (a.u.)"},
      {"sequence": "AGCAAATTCCTTTATGTTTTTTCTTATGTCTTCTCCAGCTCGGAGTCACCTAGTGCAG", "binding signal": "9040 fluorescence intensity (a.u.)"},
      {"sequence": "GGCATCAAAGTGAACAAGCCCTAAACCTTATACTATCTTCCGGAGTCACCTAGTGCAG", "binding signal": "8080 fluorescence intensity (a.u.)"},
      {"sequence": "AACTGACACCTTTGAAAAAAACCAAGCCGGCTTTTTTGACCGGAGTCACCTAGTGCAG", "binding signal": "8200 fluorescence intensity (a.u.)"},
      {"sequence": "ATGTAATTTTCCGTGTCTATACTTATTTGGTCCAAGAAATCGGAGTCACCTAGTGCAG", "binding signal": "9110 fluorescence intensity (a.u.)"},
      {"sequence": "CACTAGCTTCCTCTCTCCGCTCTGTAATCACATCAGTCCTCGGAGTCACCTAGTGCAG", "binding signal": "9730 fluorescence intensity (a.u.)"},
      {"sequence": "TCACATCAACCTGTCATACACACACAACTTTTCAGTCATACGGAGTCACCTAGTGCAG", "binding signal": "9390 fluorescence intensity (a.u.)"},
      {"sequence": "GACCAAGTCTTTCACACCATACTATCTCGGTCTCAACATACGGAGTCACCTAGTGCAG", "binding signal": "9880 fluorescence intensity (a.u.)"},
      {"sequence": "CTCTCTCTGCTCGAGCCCGAGTAGCCCTCGTCGTCATTCTCGGAGTCACCTAGTGCAG", "binding signal": "8950 fluorescence intensity (a.u.)"},
      {"sequence": "GCGACGTTCGTACGTTCTTCTCTATTGCTTTTCCGTTAATCGGAGTCACCTAGTGCAG", "binding signal": "11600 fluorescence intensity (a.u.)"},
      {"sequence": "AGAGCAAACCCCATAACAAAATCCGATCTCCGGCAGTTTCCGGAGTCACCTAGTGCAG", "binding signal": "8670 fluorescence intensity (a.u.)"},
      {"sequence": "CCTTCTGTTTTTTCCACCGTTGTCGCGGCGATCGCCATCGCGGAGTCACCTAGTGCAG", "binding signal": "9150 fluorescence intensity (a.u.)"},
      {"sequence": "CCCTCCACCCGCGCCATCTCTGCCGCGCACCCCGCCTCTGCGGAGTCACCTAGTGCAG", "binding signal": "11500 fluorescence intensity (a.u.)"},
      {"sequence": "TGGCCTTATGGTCTTTAAAGCACTGCACCTGTTGTTTCAGCGGAGTCACCTAGTGCAG", "binding signal": "9460 fluorescence intensity (a.u.)"},
      {"sequence": "CAACTGTGTCGTATCGTACGTACTTTTGTAACGGCTTAATCGGAGTCACCTAGTGCAG", "binding signal": "8860 fluorescence intensity (a.u.)"},
      {"sequence": "ACTACTTGTACCACCACACCGCGCGCTCATCATTAGCCTCCGGAGTCACCTAGTGCAG", "binding signal": "9270 fluorescence intensity (a.u.)"},
      {"sequence": "GGCTTTTCTGCGGCTGCTTTGATCTATATGGGCCGTCAACCGGAGTCACCTAGTGCAG", "binding signal": "9650 fluorescence intensity (a.u.)"},
      {"sequence": "TGTGCATTTGTTCTTAAACCGTTTATGGGCCTTTCTTTTTCGGAGTCACCTAGTGCAG", "binding signal": "10300 fluorescence intensity (a.u.)"}
    ]}
  ]
}
